pIC50: −log10 of the molar value. Where two headings read alike, the source gives them in different places.
Molecular target: T1, CIB1 and αIIb interaction (CIB1-GST : F-αIIb peptide) (Homo sapiens, UniProt Q99828)
T1 construct: made in house; host or cells: BL-21 plus RIL cells (E. coli)
T1 sequence (Q99828 1-191): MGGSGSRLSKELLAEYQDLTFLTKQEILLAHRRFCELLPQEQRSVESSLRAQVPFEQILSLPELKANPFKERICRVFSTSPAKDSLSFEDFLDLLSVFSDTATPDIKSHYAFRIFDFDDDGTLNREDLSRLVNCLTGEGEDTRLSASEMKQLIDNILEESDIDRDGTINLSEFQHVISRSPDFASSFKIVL
Assay: FP assay, 1536-well qHTS format (primary and confirmatory screen)
Assay type: binding
Settings: for Curve Class: negative sign = inhibitory curve; for pIC50: read-out: IC50

[1] = qHTS primary screen of LOPAC/NPACT libraries, negative = inhibition
[2] = qHTS primary screen of LOPAC/NPACT libraries

| SMILES | Efficacy (%) | IC50 (IC50 [μM]) [µM] | Efficacy (%) [1] [%] | Curve Class [2] | pIC50 [2] |
| --- | --- | --- | --- | --- | --- |
| CC/C(=C(\c1ccccc1)c1ccc(OCCN(C)C)cc1)c1ccccc1.O=C(O)CC(O)(CC(=O)O)C(=O)O [NCGC00024928-12] | -59 |  |  |  |  |
| O=C1NC(=O)C(c2ccccc2[N+](=O)[O-])=C1Nc1ccc(O)c(Cl)c1 [NCGC00261166-01] |  | 28.2 |  |  |  |
| Cl.Cl.OCCN1CCN(CCCN2c3ccccc3Sc3ccc(C(F)(F)F)cc32)CC1 [NCGC00261240-01] |  |  | -39 | -2.4 | 4.30 |
| CN1CCN(CCCN2c3ccccc3Sc3ccc(Cl)cc32)CC1.O=C(O)/C=C\C(=O)O.O=C(O)/C=C\C(=O)O [NCGC00261719-01] |  |  | -28 | -2.4 | 4.15 |

Source: paper PMC11249646, “Small-Molecule Disruptors of the Interaction between Calcium- and Integrin-Binding Protein 1 and Integrin αIIbβ3 as Novel Antiplatelet Agents” (ACS Pharmacology & Translational Science, 2024)
